Results: US9989532B2, “Methods and compositions for detecting coagulation inhibitors” (The University of North Carolina at Chapel Hill, priority 2013, dated 2018)
At least one structure is not confirmed: it was looked up by name or label, or the drawing left a doubt.

By UniProt entry, the sequences of proteins in these tests, tags left out. Residues count along the entry.
UniProt P00742, 41-179 limits assumed: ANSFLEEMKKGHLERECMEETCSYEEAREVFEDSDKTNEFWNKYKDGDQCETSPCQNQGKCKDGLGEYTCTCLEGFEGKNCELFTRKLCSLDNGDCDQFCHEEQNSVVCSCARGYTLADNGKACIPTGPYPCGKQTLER
UniProt P00742, 235-488 limits assumed: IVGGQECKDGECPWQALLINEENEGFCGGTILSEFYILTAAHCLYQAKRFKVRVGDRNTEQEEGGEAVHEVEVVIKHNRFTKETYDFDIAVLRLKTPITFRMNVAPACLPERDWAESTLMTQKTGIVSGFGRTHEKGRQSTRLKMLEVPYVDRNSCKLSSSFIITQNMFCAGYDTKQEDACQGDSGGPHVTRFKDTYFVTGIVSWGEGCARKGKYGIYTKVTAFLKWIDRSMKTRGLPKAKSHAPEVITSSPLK

Tests used:
factor Xa = target: T1, factor Xa (Homo sapiens, UniProt P00742); test: substrate cleavage by factor Xa in presence of sample; type: biochemical; conditions: substance in sample; substrate methoxycarbonyl-D-cyclohexylalanyl-glycyl-arginine-para-nitroaniline
T1 construct: Factor Xa was purchased from Enzyme Research Labs; purchased Enzyme Research Labs
Protocol: (§1) Substrate cleavage in the presence of test sample is measured for all four test conditions.
There are any number of substrates for thrombin and factor Xa and other proteases as described herein that can be used in the methods of this invention. In some embodiments, the substrate is a chromogenic substrate, which can be a para-nitroanalide synthetic substrate. Non-limiting examples of a chromogenic substrate of this invention include tosyl-glycyl-prolyl-arginine para-nitroanilide, H-D-cyclohexylglycyl-alanyl-arginine para-nitroanilide, H-beta-alanyl-glycyl-arginine para-nitroanilide, H-D-cyclohexylalanyl-alanyl-arginine para-nitroanilide, H-D-phenylalanyl-pipecolyl-arginine para-nitroanilide, H-D-(carbobenzoyl)lysyl-prolyl-arginine para-nitroanilide, H-beta-alanyl-glycyl-arginine 7-amino-4-methylcoumarin, H-D-cyclohexylglycyl-alanyl-arginine 7-amino-4-methylcoumarin, H-D-(carbobenzoyl)lysyl-prolyl-arginine 7-amino-4-methylcoumarin, methoxycarbonyl-D-cyclohexylalanyl-glycyl-arginine para-nitroanilide, methoxycarbonyl-D-cyclohexylglycyl-glycyl-arginine para-nitroanilide, benzoyloxycarbonyl-D-arginyl-glycyl-arginine para-nitroanilide, benzoyl-isoleucyl-glutamyl-glycyl-arginine para-nitroanilide, methylsulfonyl-D-cyclohexylalanyl-glycyl-arginine 7-amino-4-methylcoumarin, and methoxycarbonyl-D-cyclohexylalanyl-glycyl-arginine 7-amino-4-methylcoumarin. […]

[1] = test system: normal pooled plasma (NPP); test: aPTT (activated partial thromboplastin time) in normal pooled plasma; type: biochemical; conditions: FIG. 4; dabigatran added to normal pooled plasma
a2M-IIa = a2M-IIa substrate cleavage test on plasma of fed mice; conditions: substance in plasma of mice fed Pradaxa or Xarelto
Protocol: (§2) Mice were fed Xarelto or Pradaxa or regular chow. Plasma from the animals was analyzed for the presence of dabigatran (active metabolite of Pradaxa) or rivaroxaban (active component of Xarelto). […] 0.5 mM of para-nitroanilide synthetic substrate (Pefachrome FXa) was added and substrate cleavage was determined by appearance of yellow color characteristic of the cleaved substrate.

a2M-Xa [2] = target: T2, a2M-Xa (Homo sapiens, UniProt P00742); conditions: substance in plasma of mice fed Pradaxa or Xarelto
Protocol: as §2

a2M-Xa [3] = target: T2, a2M-Xa; test: substrate cleavage by a2M-Xa (factor Xa caged in alpha-2-macroglobulin); type: biochemical; parameters: Factor Xa was purchased from Enzyme Research Labs; host or cells: no expression host: complex formed in vitro from purchased factor Xa and a2M purified from human plasma, then purified on heparin Sepharose and Q-Sepharose
Protocol: as §1
There are any number of substrates for thrombin and factor Xa and other proteases as described herein that can be used in the methods of this invention. In some embodiments, the substrate is a chromogenic substrate, which can be a para-nitroanalide synthetic substrate. […]
0.5 mM of para-nitroanilide synthetic substrate (Pefachrome FXa) was added and the rate of substrate cleavage determined by appearance of yellow color characteristic of the cleaved substrate. […]
The rates of substrate cleavage were converted to concentrations using measured Km and kcat values determined as previously described (Joost et al. “Inhibition of human blood coagulation factor Xa by alpha-2-macroglobulin” Biochemistry 26:5932-5937 (1987) doi: 10.1021/bi00392a053) (FIGS. 1-5).

[H]/N=C(/N)c1ccc(NCc2nc3cc(C(=O)N(CCC(=O)O)c4ccccn4)ccc3n2C)cc1 [dabigatran]
cleavage of the substrate, (c) Factor Xa (factor Xa): Cleavage
clotting time (aPTT) [1]: slightly prolonged
effect on a2M-IIa cleavage of substrate (a2M-IIa): blocked
effect on a2M-Xa cleavage of substrate (a2M-Xa [2]): had no effect
effect on substrate cleavage by purified a2M-Xa (a2M-Xa [3]; FIG. 2, buffer pH 7.4, 5 minutes incubation, 0.5 mM Pefachrome FXa): did not block substrate cleavage
cleavage of the substrate, (d) a2M-Xa (a2M-Xa [3]; substance in sample, substrate methoxycarbonyl-D-cyclohexylalanyl-glycyl-arginine-para-nitroaniline): Cleavage
